This is one part of the list. Small differences around the control level are noise.
Compound: CN[C@@H]1C[C@H]2O[C@@](C)([C@@H]1OC)n1c3ccccc3c3c4c(c5c6ccccc6n2c5c31)C(=O)NC4 [staurosporine]
Experiment: log2 fold change of tryptic peptide abundance, ligand vs vehicle (limited proteolysis) (log2 ratio); higher = more trypsin-susceptible (destabilized)
Details: ligand concentration: 20 uM; sample: K562 cleared lysate; digestion: 4 min, 22 C (HT-PELSA RT4min, Orbitrap Astral)

Sequences of proteins named here, by UniProt entry; tags and fusion partners are left off. A change or cut given only in a name is not applied to a line headed by its entry.
UniProt P10589: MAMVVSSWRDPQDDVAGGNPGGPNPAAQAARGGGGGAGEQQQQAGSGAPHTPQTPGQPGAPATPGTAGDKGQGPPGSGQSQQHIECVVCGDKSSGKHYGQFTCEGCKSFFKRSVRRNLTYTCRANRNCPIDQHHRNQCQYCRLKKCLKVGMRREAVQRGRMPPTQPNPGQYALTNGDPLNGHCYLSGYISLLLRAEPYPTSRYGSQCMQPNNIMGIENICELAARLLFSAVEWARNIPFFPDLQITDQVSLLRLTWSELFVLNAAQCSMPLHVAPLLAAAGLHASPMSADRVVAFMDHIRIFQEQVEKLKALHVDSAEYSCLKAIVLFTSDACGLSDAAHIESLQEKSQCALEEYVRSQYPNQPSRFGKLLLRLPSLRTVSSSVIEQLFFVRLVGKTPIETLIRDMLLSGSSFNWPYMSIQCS
UniProt P08621, whole entry: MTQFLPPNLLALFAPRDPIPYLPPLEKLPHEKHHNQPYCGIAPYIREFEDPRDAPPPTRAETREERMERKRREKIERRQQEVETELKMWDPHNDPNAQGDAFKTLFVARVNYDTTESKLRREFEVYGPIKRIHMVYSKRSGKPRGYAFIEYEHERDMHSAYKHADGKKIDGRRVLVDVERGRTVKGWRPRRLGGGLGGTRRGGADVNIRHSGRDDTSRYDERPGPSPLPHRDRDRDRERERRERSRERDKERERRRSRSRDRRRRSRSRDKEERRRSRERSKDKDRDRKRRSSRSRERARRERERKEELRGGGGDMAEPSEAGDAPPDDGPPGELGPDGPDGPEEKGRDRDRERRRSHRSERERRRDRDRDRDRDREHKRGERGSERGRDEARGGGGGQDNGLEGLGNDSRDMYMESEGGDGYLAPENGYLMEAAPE
UniProt P04183: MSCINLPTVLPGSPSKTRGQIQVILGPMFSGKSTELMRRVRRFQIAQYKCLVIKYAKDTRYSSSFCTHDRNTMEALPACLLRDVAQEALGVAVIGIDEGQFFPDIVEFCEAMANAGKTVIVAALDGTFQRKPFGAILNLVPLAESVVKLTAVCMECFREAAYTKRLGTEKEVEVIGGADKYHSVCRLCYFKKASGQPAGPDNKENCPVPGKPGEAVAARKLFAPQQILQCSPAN
UniProt P0DKB5: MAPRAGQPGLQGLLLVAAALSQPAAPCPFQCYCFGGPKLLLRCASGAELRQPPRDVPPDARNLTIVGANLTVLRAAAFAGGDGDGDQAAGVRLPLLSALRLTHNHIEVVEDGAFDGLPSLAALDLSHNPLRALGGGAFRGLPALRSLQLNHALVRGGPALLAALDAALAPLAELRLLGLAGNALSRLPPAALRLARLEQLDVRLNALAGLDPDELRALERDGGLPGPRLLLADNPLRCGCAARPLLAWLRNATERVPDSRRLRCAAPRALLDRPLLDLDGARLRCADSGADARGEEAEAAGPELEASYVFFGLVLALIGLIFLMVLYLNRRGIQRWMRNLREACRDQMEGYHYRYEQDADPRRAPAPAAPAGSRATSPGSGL
UniProt P10074: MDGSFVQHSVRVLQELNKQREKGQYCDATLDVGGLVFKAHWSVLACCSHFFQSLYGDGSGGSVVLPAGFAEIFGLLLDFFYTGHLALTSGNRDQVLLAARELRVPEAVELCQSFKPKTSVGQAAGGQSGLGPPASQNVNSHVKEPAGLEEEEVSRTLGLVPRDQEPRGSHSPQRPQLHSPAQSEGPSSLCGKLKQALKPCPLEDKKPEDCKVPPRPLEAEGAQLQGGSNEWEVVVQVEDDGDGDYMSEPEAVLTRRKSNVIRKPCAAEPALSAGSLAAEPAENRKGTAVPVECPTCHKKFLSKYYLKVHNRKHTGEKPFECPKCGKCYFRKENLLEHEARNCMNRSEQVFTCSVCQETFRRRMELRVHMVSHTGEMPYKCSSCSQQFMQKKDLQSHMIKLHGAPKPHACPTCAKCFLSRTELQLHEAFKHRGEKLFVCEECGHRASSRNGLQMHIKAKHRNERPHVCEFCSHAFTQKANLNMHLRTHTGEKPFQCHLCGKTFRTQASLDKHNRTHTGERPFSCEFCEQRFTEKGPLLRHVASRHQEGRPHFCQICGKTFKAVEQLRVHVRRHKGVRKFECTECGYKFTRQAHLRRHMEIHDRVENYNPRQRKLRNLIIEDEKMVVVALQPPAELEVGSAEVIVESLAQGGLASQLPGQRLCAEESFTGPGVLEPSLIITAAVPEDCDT
UniProt P07738: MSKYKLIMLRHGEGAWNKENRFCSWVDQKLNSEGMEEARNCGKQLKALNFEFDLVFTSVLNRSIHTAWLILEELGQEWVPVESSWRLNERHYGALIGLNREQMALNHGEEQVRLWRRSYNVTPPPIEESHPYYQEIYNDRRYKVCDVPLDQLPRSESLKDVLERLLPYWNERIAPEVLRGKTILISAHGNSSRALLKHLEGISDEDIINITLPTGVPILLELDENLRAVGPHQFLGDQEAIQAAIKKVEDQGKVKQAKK
UniProt P06733, whole entry: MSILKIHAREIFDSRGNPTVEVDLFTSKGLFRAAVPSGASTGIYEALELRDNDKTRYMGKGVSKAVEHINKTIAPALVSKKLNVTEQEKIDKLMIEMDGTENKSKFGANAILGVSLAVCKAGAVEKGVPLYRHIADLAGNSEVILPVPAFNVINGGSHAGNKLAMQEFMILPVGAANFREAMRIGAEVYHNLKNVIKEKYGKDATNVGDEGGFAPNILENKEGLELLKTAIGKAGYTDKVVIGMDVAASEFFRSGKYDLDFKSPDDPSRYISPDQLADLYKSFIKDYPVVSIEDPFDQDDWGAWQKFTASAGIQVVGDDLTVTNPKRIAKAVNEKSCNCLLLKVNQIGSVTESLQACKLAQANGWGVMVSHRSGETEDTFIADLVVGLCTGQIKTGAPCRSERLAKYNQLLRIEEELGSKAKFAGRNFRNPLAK
UniProt P09622, whole entry: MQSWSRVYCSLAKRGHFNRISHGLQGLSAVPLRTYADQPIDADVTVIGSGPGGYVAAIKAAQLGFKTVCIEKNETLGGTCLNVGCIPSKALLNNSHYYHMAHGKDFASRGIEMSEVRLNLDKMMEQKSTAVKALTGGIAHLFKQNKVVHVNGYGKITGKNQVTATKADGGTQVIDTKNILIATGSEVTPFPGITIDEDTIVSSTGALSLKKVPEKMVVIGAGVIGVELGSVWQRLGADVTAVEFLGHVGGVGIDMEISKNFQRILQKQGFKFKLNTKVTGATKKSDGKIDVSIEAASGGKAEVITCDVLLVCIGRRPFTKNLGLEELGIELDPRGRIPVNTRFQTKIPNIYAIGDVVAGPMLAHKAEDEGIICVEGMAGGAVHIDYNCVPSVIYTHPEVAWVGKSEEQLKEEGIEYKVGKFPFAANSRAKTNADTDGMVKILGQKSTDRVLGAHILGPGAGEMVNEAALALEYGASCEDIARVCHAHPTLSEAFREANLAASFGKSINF
UniProt P12955: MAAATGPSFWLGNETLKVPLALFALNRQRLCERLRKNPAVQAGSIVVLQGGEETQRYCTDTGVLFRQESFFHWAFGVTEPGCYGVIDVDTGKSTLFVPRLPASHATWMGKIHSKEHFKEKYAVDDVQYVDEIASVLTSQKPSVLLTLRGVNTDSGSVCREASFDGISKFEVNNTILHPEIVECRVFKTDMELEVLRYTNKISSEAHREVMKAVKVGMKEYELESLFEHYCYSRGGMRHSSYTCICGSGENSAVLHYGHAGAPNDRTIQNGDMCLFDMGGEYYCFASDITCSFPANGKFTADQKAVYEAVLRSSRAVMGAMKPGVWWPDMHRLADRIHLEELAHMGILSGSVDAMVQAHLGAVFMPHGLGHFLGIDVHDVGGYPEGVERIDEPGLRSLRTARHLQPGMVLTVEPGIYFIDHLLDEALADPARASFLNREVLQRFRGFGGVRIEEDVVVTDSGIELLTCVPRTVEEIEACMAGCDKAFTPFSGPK
UniProt P11413, whole entry: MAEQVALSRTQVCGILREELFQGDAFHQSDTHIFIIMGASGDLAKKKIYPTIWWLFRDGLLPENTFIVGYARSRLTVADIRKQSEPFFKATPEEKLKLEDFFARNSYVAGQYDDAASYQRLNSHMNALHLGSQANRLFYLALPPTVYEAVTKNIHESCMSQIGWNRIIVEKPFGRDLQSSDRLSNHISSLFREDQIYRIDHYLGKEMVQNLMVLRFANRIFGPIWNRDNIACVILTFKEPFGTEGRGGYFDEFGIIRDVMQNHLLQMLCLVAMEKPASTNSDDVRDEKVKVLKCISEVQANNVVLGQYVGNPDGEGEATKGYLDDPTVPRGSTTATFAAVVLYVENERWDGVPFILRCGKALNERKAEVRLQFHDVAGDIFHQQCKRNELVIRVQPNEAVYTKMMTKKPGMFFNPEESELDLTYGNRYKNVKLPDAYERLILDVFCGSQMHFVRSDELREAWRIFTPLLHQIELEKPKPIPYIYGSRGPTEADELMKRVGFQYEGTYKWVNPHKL
UniProt P0C860: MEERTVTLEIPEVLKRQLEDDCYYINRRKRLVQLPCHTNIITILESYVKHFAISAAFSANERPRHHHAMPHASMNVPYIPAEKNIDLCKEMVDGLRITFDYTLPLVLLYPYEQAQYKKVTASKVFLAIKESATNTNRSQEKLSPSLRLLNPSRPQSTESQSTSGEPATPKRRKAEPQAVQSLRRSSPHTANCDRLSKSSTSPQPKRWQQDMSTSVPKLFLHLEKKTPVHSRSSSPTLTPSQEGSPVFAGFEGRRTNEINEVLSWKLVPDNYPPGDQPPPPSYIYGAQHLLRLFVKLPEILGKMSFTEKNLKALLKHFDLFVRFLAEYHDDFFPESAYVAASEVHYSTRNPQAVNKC
UniProt P06401: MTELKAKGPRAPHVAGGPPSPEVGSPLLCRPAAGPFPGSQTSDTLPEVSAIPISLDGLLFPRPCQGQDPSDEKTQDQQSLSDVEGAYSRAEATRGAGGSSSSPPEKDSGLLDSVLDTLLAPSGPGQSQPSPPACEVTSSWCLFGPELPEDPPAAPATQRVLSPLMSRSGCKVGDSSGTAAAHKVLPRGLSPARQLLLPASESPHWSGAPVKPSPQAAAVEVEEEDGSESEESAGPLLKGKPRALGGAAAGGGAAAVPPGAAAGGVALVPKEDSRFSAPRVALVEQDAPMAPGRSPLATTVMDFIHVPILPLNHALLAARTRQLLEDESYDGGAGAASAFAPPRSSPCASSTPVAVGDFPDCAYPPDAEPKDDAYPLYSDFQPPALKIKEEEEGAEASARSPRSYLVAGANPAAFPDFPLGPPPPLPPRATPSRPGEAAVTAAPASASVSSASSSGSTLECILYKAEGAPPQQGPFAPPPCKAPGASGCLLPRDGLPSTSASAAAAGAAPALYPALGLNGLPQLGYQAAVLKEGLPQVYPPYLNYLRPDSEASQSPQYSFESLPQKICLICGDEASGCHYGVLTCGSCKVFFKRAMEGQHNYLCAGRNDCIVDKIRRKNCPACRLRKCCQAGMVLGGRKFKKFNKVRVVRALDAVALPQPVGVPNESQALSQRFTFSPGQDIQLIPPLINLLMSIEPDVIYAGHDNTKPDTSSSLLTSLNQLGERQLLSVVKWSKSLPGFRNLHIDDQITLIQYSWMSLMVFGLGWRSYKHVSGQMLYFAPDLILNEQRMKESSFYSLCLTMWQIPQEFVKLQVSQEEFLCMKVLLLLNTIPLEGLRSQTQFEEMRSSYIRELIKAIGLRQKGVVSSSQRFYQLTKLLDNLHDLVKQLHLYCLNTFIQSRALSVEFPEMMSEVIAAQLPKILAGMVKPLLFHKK
UniProt P0C2W1: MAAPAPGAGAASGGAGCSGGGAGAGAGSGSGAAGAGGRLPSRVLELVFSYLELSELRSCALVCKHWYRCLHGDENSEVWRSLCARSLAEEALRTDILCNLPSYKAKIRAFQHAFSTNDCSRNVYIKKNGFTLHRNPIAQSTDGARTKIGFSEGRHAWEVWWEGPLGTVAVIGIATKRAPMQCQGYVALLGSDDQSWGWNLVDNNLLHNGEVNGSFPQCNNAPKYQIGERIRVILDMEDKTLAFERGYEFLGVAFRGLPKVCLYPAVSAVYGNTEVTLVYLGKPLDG
UniProt P06454: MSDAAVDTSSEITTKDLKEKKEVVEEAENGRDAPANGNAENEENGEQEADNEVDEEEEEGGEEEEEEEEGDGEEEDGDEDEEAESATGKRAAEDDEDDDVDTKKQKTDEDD
UniProt P0C1Z6, whole entry: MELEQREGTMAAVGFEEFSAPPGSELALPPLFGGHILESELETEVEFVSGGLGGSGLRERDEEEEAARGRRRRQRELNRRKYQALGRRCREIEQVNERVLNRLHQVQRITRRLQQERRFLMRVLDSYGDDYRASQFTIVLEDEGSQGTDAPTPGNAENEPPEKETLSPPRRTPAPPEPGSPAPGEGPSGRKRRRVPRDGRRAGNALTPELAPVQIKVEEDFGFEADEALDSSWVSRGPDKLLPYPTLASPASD
UniProt P0C0S5, whole entry: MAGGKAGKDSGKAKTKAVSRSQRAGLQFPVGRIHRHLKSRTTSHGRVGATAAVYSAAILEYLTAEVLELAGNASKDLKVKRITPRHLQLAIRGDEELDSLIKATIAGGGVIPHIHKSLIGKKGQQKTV
UniProt P07919: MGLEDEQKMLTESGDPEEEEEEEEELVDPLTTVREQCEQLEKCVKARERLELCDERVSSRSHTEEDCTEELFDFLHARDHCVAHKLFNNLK

| Target | log2 fold change |
| --- | --- |
| UniProt P10589 (peptide sequence: IFQEQVEK, peptide start residue: 294) | -0.309 |
| SNRNP70 (peptide sequence: PGPSPLPHR, peptide start residue: 223) (UniProt P08621) | -0.523 |
| TK1 (peptide sequence: YSSSFCTHDR, peptide start residue: 61) (UniProt P04183) | 0.167 |
| MRPL3 (peptide sequence: GQPATHGQTK, peptide start residue: 226) (UniProt P09001) | 0.225 |
| UniProt P0DKB5 (peptide sequence: LEQLDVR, peptide start residue: 197) | -0.0351 |
| ZBTB48 (peptide sequence: PHVCEFCSHAFTQK, peptide start residue: 464) (UniProt P10074) | -0.682 |
| BPGM (peptide sequence: KVEDQGKVK, peptide start residue: 247) (UniProt P07738) | -0.425 |
| GUSB (peptide sequence: WLGANAFR, peptide start residue: 375) (UniProt P08236) | -0.184 |
| GLUD1 (peptide sequence: GASIVEDKLVEDLR, peptide start residue: 77) (UniProt P00367) | 0.18 |
| ENO1 (peptide sequence: SILKIHAR, peptide start residue: 2) (UniProt P06733) | 1.27 |
| LDHA (peptide sequence: GEMMDLQHGSLFLR, peptide start residue: 60) (UniProt P00338) | -0.372 |
| DLD (peptide sequence: FPFAANSR, peptide start residue: 421) (UniProt P09622) | 0.316 |
| SNRPA1 (peptide sequence: NAIANASTLAEVER, peptide start residue: 206) (UniProt P09661) | -0.13 |
| PEPD (peptide sequence: AFTPFSGPK, peptide start residue: 485) (UniProt P12955) | 0.042 |
| UROD (peptide sequence: QMLDDFGPHR, peptide start residue: 323) (UniProt P06132) | 0.784 |
| G6PD (peptide sequence: WDGVPFILR, peptide start residue: 349) (UniProt P11413) | -0.288 |
| CENPB (peptide sequence: LAAQSLDTSGLR, peptide start residue: 299) (UniProt P07199) | -0.187 |
| NFIC (peptide sequence: EDFVLSITGK, peptide start residue: 90) (UniProt P08651) | -0.214 |
| UniProt P0C860 (peptide sequence: LFLHLEK, peptide start residue: 384) | 0.108 |
| UniProt P06401 (peptide sequence: ILAGMVKPLLFHKK, peptide start residue: 920) | 0.533 |

Three entries from above in another layout.
Target,log2 fold change
"SNRNP70 (peptide sequence: PGPSPLPHR, peptide start residue: 223) (UniProt P08621)",-0.523
"BPGM (peptide sequence: KVEDQGKVK, peptide start residue: 247) (UniProt P07738)",-0.425
"UniProt P06401 (peptide sequence: ILAGMVKPLLFHKK, peptide start residue: 920)",0.533

(next part)

| Target | log2 fold change |
| --- | --- |
| UniProt P03971 (peptide sequence: MTPALLLLPR, peptide start residue: 245) | -0.343 |
| EPB41 (peptide sequence: NFMESVPEPRPSEWDK, peptide start residue: 691) (UniProt P11171) | 0.372 |
| GBA (peptide sequence: LLLPHWAK, peptide start residue: 325) (UniProt P04062) | 0.292 |
| TPR (peptide sequence: NIEELQQQNQR, peptide start residue: 542) (UniProt P12270) | -0.345 |
| POLR1D (peptide sequence: GLNELMNVCQHVLDKFEASIK, peptide start residue: 99) (UniProt P0DPB6) | -0.441 |
| FBXO45 (peptide sequence: NPIAQSTDGAR, peptide start residue: 135) (UniProt P0C2W1) | 0.592 |
| PTMA (peptide sequence: AAEDDEDDDVDTKK, peptide start residue: 91) (UniProt P06454) | -0.116 |
| PARP1 (peptide sequence: VCSTNDLKELLIFNK, peptide start residue: 255) (UniProt P09874) | 0.392 |
| TFPT (peptide sequence: VLDSYGDDYR, peptide start residue: 123) (UniProt P0C1Z6) | -0.562 |
| UniProt P0C0S5 (peptide sequence: ATIAGGGVIPHIHK, peptide start residue: 103) | 0.129 |
| HNRNPA1 (peptide sequence: SESPKEPEQLR, peptide start residue: 4) (UniProt P09651) | -0.0667 |
| AK1 (peptide sequence: LSEIMEK, peptide start residue: 57) (UniProt P00568) | -0.452 |
| ZNF688 (peptide sequence: NPDPAISVAPAR, peptide start residue: 139) (UniProt P0C7X2) | -0.206 |
| UQCRH (peptide sequence: LELCDER, peptide start residue: 50) (UniProt P07919) | 0.0462 |
| HBQ1 (peptide sequence: TFLAFPATK, peptide start residue: 33) (UniProt P09105) | 0.267 |
| UniProt P0C7T7 (peptide sequence: SAPAQPPAPQTR, peptide start residue: 83) | 0.234 |
| ATXN1L (peptide sequence: AALLRPSFIPQEVK, peptide start residue: 665) (UniProt P0C7T5) | -0.374 |
| MAPT (peptide sequence: LQTAPVPMPDLK, peptide start residue: 560) (UniProt P10636) | 0.269 |
| GALT (peptide sequence: YNPLQDEWVLVSAHR, peptide start residue: 34) (UniProt P07902) | 0.336 |

— the supplement of paper PMC12819154, “High-throughput peptide-centric local stability assay extends protein–ligand identification to membrane proteins, tissues and bacteria” (Nature Structural & Molecular Biology, 2025)
